{
  "sequences": {"note": "Sequences of proteins named here, by UniProt entry; tags and fusion partners are left off.", "UniProt Q0JBA9, entry or part of it": "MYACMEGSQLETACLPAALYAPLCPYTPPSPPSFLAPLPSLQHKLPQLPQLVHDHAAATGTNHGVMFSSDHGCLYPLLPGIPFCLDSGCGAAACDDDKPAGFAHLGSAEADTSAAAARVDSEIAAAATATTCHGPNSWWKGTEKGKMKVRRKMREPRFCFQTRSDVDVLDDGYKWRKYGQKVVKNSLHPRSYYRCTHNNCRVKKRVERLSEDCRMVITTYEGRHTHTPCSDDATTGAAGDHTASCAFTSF"},
  "source": "paper PMC7819943",
  "about": "“Rice protein-binding microarrays: a tool to detect cis-acting elements near promoter regions in rice”",
  "note": "This is one part of the list.",
  "data": [
    {"target": "OsWRKY34 (Oryza sativa, UniProt Q0JBA9 1-250)", "test": "protein-binding microarray (RPBM); PBS, 2% BSA, 51.3 ng/ul salmon testes DNA, 50 uM zinc acetate, 200 nM TF, 25 C, 1 h; high values mean tight binding", "conditions": "protein: recombinant; tags: N-terminal polyhistidine and DsRed monomer fusion (pET32a); label: CyDye5-dUTP incorporated in the synthesized complementary strand; 3' TTTTT single-stranded linker to array surface; dsDNA, one strand shown", "method_in_brief": "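A custom Agilent array was converted to double-stranded form by primer extension with Cy5-dUTP and blocked with 2% BSA. Protein at 200 nM in PBS with 2% BSA, salmon testes DNA and 50 µM zinc acetate was applied for 1 h at 25 °C, followed by washing. The proteins were polyhistidine–DsRed N-terminal fusions of transcription factors, expressed in E. coli BL21-CodonPlus and Ni–NTA-purified. The binding signal is per-feature fluorescence intensity (arbitrary units) from an Axon 4000B scanner.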", "values": [
      {"sequence": "CCACCTCCACTTCGCCGCCGGCGCCTCACCACGCGCAGACCGGAGTCACCTAGTGCAG", "binding signal": "8800 fluorescence intensity (a.u.)"},
      {"sequence": "TAATAAAGACATCTCCTCTTGGCTCTTTTACTGTTTGATACGGAGTCACCTAGTGCAG", "binding signal": "10000 fluorescence intensity (a.u.)"},
      {"sequence": "ATCCGTCCGTTTCGTTCCGTACGAACCGCCGGCGTTCAAACGGAGTCACCTAGTGCAG", "binding signal": "8580 fluorescence intensity (a.u.)"},
      {"sequence": "ATGGGCTGGCCCACGCAACATTCCACCTTGGGCTTCGATTCGGAGTCACCTAGTGCAG", "binding signal": "8520 fluorescence intensity (a.u.)"},
      {"sequence": "ATAAAGTGATTTTCGGTTGTGATGATGCGGTCTATATATACGGAGTCACCTAGTGCAG", "binding signal": "8230 fluorescence intensity (a.u.)"},
      {"sequence": "GGGCTTGGGTTTGTGCTGGTCCATACTTATGGGCTTAATACGGAGTCACCTAGTGCAG", "binding signal": "10400 fluorescence intensity (a.u.)"},
      {"sequence": "TTCATTGTCATTGTGTGCCTGTGCTGTAAAAGTTGATTATCGGAGTCACCTAGTGCAG", "binding signal": "11000 fluorescence intensity (a.u.)"},
      {"sequence": "AAAATTTTCCTTTTTTCTCCTCTCTTCTCACCGGTTCACCCGGAGTCACCTAGTGCAG", "binding signal": "9440 fluorescence intensity (a.u.)"},
      {"sequence": "GTCAAAGCAGCTGACAAGAAGAGGTGCCGTTGACCCCACCCGGAGTCACCTAGTGCAG", "binding signal": "8990 fluorescence intensity (a.u.)"},
      {"sequence": "CTGAGTTCCTTTGCTACTTGCCTCCTTGCTGCGCTTCTCGCGGAGTCACCTAGTGCAG", "binding signal": "14000 fluorescence intensity (a.u.)"},
      {"sequence": "AGAGCATACATTTACACATGAGGGAGGGAGGGCCATCGATCGGAGTCACCTAGTGCAG", "binding signal": "9340 fluorescence intensity (a.u.)"},
      {"sequence": "AATCAGATCTTTAAGCACAGCCTTTGATGCCAACTTTTTCCGGAGTCACCTAGTGCAG", "binding signal": "8680 fluorescence intensity (a.u.)"},
      {"sequence": "CTTCAGTGGGATCAGGGATGTACCGCTGGTTTTTATTTCTCGGAGTCACCTAGTGCAG", "binding signal": "9300 fluorescence intensity (a.u.)"},
      {"sequence": "GCTCCCTTTTTATGCACTGCCGCACCATCTCTTTTCTCCTCGGAGTCACCTAGTGCAG", "binding signal": "9360 fluorescence intensity (a.u.)"},
      {"sequence": "GATATACTATCCTCCAATGAGTCATCCTGTTTCACTGCTACGGAGTCACCTAGTGCAG", "binding signal": "9960 fluorescence intensity (a.u.)"},
      {"sequence": "ACTCCCGAAGGCAATTCCAACCACCGCATTATGCCACACACGGAGTCACCTAGTGCAG", "binding signal": "9160 fluorescence intensity (a.u.)"},
      {"sequence": "ATCAGCATTTCGCCTTTCGTCGTCGTCGTCATCATCCACTCGGAGTCACCTAGTGCAG", "binding signal": "11400 fluorescence intensity (a.u.)"},
      {"sequence": "TATTTTTCATGCAGATCTTTTGAGGGGTCAGCCACTCTTTCGGAGTCACCTAGTGCAG", "binding signal": "8760 fluorescence intensity (a.u.)"},
      {"sequence": "ACCAGTTAATGTACATTTGCAATTATATTTTGTTATTTTTCGGAGTCACCTAGTGCAG", "binding signal": "8230 fluorescence intensity (a.u.)"},
      {"sequence": "GTCCCATGTCTCACACGCTCAGCATGAGGCGCCTCACACGCGGAGTCACCTAGTGCAG", "binding signal": "9180 fluorescence intensity (a.u.)"},
      {"sequence": "TGGTAGATCCGCTGGTCTCTCTCTTTCACTGCGCGCCTCTCGGAGTCACCTAGTGCAG", "binding signal": "8540 fluorescence intensity (a.u.)"},
      {"sequence": "GCCATTGCTACAGCTCTGCTACATCTCTGGGTCGTGCGTCCGGAGTCACCTAGTGCAG", "binding signal": "8190 fluorescence intensity (a.u.)"},
      {"sequence": "TTTCAAGCAATCCATATTCCGTCCGTCAGCTACTGCTAGTCGGAGTCACCTAGTGCAG", "binding signal": "9620 fluorescence intensity (a.u.)"}
    ]}
  ]
}
